Assay results published in PubChem BioAssay AID256 (DTP/NCI, 2004).
The list shows only some results of the screen, not a fair sample: it is rich in T/C values a quarter to a half above the control, in often repeated tests (any T/C) and in doses without a T/C. Further doses and runs are listed elsewhere. T/C is the treated group as % of the vehicle group. Some entries give survivors of the animals treated and no T/C: the source files T/C as zero there, which appears to mark a toxic dose or a test without result, not a measured value. Some survivor counts are full or nearly so, which does not show that the dose was tolerated: survival well below the control is almost never listed, so the zero probably covers shortened survival too. Survivors were counted at the toxicity check, usually on the fifth day, unless a day is given; later deaths do not show. Schedule codes are those of the source, taken here to give the interval after Q, in days (D) or hours (H), and the number of doses after X. For survival time, the PubChem record calls one and a half times the control and up active, and a quarter to a half above the control has no call in these data; cut-offs in other NCI protocols can differ.

Tested on: CD2F1 mice, L1210 leukemia ip, survival T/C
Test: NCI In Vivo Anticancer Drug Screen. Data for tumor model L1210 Leukemia (intraperitoneal) in CD2F1 (CDF1) mice
Settings: T/C endpoint: mean survival time, higher T/C = longer survival
Method in brief: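 Antitumor effect is scored in animals hosting a serially transplanted tumor. Values compare compound-dosed animals against vehicle-only controls as a simple quotient.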

[1] = dose: 200.0 mg/kg/injection, schedule: Q04DX003 (ip), vehicle: saline with Tween-80
[2] = dose: 400.0 mg/kg/injection, schedule: Q04DX003 (ip), vehicle: saline with Tween-80
[3] = dose: 100.0 mg/kg/injection, schedule: Q01DX009 (ip), vehicle: saline with Tween-80

Structure (SMILES): COCCNC1=C(C)C(=O)C2=C(C1=O)[C@H](COC(N)=O)[C@]1(OC)[C@@H]3N[C@@H]3CN21
- T/C (dose: 6.0 mg/kg/injection, schedule: Q01DX001 (ip), vehicle: distilled water + Tween-80): 125 % of control
- T/C (dose: 12.0 mg/kg/injection, schedule: Q01DX001 (ip), vehicle: distilled water + Tween-80): 144 % of control

Structure (SMILES): O=C(O)c1ccc([As](=O)(O)O)cc1
- survivor count (dose: 50.0 mg/kg/injection, schedule: Q01DX009 (ip), vehicle: Klucel (hydroxypropylcellulose) (HPC)): 0 of 3
- survivor count (dose: 100.0 mg/kg/injection, schedule: Q01DX009 (ip), vehicle: Klucel (hydroxypropylcellulose) (HPC)): 0 of 3

Structure (SMILES): O=C(Cl)N(c1ccccc1)c1ccccc1
- survivor count (dose: 400.0 mg/kg/injection, schedule: Q01DX001 (ip), vehicle: saline with Tween-80): 1 of 3

Structure (SMILES): NC(=O)N/N=C1\CC2C=CCC12 (configuration not stated)
- survivor count (dose: 400.0 mg/kg/injection, schedule: Q01DX009 (ip), vehicle: saline with Tween-80): 3 of 6

Structure (SMILES): CC1(C)N=C(N)N=C(N)N1c1ccc(OCCOc2ccc(S(=O)(=O)F)cc2)c(Cl)c1
- T/C (dose: 50.0 mg/kg/injection, schedule: Q04DX003 (ip), vehicle: saline with Tween-80): 125 % of control

Structure (SMILES): NC(N)=Nc1ncnc2nncnc12
- survivor count (dose: 75.0 mg/kg/injection, schedule: Q01DX001 (ip), vehicle: other): 0 of 6
- survivor count (dose: 150.0 mg/kg/injection, schedule: Q01DX001 (ip), vehicle: other): 0 of 6
- survivor count (dose: 300.0 mg/kg/injection, schedule: Q01DX001 (ip), vehicle: other): 0 of 6

Structure (SMILES): Cc1c([N+](=O)[O-])cc(C(C)(C)C)c(OC(=S)N(C)C)c1[N+](=O)[O-]
- survivor count (dose: 100.0 mg/kg/injection, schedule: Q04DX002 (ip), vehicle: saline with Tween-80): 2 of 3
- survivor count (dose: 200.0 mg/kg/injection, schedule: Q04DX002 (ip), vehicle: saline with Tween-80): 3 of 3
- survivor count (dose: 400.0 mg/kg/injection, schedule: Q04DX002 (ip), vehicle: saline with Tween-80): 0 of 3

Structure (SMILES): CNC(Cc1ccccc1)c1ccccc1 (configuration not stated)
- survivor count [1]: 0 of 6
- survivor count [2]: 0 of 6

Structure (SMILES): CO/C(=N\C(=O)NC1CC(OC(=O)c2ccc(C)cc2)C(COC(=O)c2ccc(C)cc2)O1)NC(=O)c1ccc(C)cc1 (configuration not stated)
- survivor count [1]: 6 of 6
- survivor count [2]: 6 of 6

Structure (SMILES): NCC1OC(n2cnc3c(N)ncnc32)C(O)C1O (configuration not stated)
- survivor count (dose: 200.0 mg/kg/injection, schedule: Q01DX005 (ip), vehicle: Klucel (hydroxypropylcellulose) (HPC)): 3 of 6

Structure (SMILES): CN1CCC(O)(O)C(Br)C1 (configuration not stated)
- survivor count (dose: 150.0 mg/kg/injection, schedule: Q01DX001 (ip), vehicle: saline): 3 of 6
- survivor count (dose: 300.0 mg/kg/injection, schedule: Q01DX001 (ip), vehicle: saline): 0 of 6

Structure (SMILES): CS(=O)(=O)OCCNc1ccc([N+](=O)[O-])cc1
- survivor count (dose: 512.0 mg/kg/injection, schedule: Q01DX001 (ip), vehicle: saline): 0 of 6

Structure (SMILES): CC(=O)Oc1ccc(N2C(=O)C3C(C2=O)C2c4ccccc4C3C3CCCCN32)cc1 (configuration not stated) (tested in a mixture with another compound)
- survivor count (dose: 400.0 mg/kg/injection, schedule: Q01DX009 (ip), vehicle: water): 0 of 6

Structure (SMILES): COc1cc(OC)c(NC(=O)NCc2ccco2)cc1Cl
- survivor count [3]: 3 of 3

Structure (SMILES): O=C(NNc1ccccc1)C(F)(F)F
- survivor count [3]: 2 of 6
- survivor count (dose: 200.0 mg/kg/injection, schedule: Q04DX003 (ip), vehicle: acetone): 4 of 6
- survivor count (dose: 400.0 mg/kg/injection, schedule: Q04DX003 (ip), vehicle: acetone): 0 of 6

Structure (SMILES): CCC[CH2][Sn]1([CH2]CCC)[O]C2C(CO)OC(n3ccc(=O)[nH]c3=O)C2[O]1 (configuration not stated)
- survivor count (dose: 25.0 mg/kg/injection, schedule: Q01DX005 (ip), vehicle: other): 2 of 6

Structure (SMILES): NC(=O)c1[nH]cnc1/N=N/N(CCCl)Cc1ccccc1
- T/C (dose: 44.0 mg/kg/injection, schedule: Q01DX009 (ip), vehicle: Klucel (hydroxypropylcellulose) (HPC)): 143 % of control
- T/C (dose: 100.0 mg/kg/injection, schedule: Q04DX003 (ip), vehicle: Klucel (hydroxypropylcellulose) (HPC)): 131 % of control

Structure (SMILES): CNC(=S)Nc1ccc(C(=O)NC(C)C)cc1
- survivor count (dose: 400.0 mg/kg/injection, schedule: Q01DX009 (ip), vehicle: other): 3 of 6
- survivor count (dose: 800.0 mg/kg/injection, schedule: Q01DX009 (ip), vehicle: other): 0 of 6

Structure (SMILES): CCOC(=O)C(NCc1ccccc1)C(=O)OCC
- survivor count (dose: 200.0 mg/kg/injection, schedule: Q01DX009 (ip), vehicle: water): 3 of 6
